# Measured values as given in the supplement of paper PMC6411743.
# Sequences of proteins named here, by UniProt entry; tags and fusion partners are left off. A change or cut given only in a name is not applied to a line headed by its entry.
# UniProt P20700: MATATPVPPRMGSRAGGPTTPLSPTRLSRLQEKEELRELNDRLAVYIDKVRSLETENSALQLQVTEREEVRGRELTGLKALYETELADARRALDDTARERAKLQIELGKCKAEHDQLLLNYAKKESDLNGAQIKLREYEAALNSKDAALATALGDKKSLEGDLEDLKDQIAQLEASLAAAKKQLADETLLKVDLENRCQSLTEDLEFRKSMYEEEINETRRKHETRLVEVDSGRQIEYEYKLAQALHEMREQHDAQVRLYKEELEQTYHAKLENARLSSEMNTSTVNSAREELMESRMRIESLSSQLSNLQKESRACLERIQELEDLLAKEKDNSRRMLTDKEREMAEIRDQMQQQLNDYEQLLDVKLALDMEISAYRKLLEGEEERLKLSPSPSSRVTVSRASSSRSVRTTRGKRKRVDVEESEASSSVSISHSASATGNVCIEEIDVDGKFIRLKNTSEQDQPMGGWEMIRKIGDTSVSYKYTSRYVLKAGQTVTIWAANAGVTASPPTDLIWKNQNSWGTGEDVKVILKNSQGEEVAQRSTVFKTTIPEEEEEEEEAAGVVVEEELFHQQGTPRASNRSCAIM
# UniProt P28331, whole entry: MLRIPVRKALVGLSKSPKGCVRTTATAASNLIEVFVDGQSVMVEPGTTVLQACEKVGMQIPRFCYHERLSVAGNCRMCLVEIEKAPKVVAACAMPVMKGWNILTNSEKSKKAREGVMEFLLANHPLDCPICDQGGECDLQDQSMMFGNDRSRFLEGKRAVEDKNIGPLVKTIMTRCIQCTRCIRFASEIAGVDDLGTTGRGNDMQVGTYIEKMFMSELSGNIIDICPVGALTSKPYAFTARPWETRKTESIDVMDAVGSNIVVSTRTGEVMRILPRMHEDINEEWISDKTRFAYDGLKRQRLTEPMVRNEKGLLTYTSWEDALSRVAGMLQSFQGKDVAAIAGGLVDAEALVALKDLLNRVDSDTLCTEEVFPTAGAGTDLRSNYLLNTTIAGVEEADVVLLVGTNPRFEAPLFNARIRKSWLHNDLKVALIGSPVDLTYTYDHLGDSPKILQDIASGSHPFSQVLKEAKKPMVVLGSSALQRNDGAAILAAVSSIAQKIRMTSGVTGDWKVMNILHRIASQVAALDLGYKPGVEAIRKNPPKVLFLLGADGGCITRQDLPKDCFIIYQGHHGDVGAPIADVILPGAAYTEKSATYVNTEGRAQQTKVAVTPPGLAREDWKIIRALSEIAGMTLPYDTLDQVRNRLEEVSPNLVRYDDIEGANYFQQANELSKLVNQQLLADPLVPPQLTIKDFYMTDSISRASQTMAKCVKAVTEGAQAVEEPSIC
# UniProt P17028: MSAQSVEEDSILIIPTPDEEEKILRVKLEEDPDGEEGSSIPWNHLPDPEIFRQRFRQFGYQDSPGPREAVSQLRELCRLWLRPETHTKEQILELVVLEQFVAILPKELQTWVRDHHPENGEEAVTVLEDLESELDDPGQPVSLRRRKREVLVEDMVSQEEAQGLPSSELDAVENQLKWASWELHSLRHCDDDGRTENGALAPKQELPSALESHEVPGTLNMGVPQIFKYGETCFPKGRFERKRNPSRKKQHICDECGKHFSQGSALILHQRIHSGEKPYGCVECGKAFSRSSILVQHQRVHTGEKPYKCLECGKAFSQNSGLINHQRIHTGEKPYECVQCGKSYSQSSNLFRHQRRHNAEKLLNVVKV
# UniProt P19447: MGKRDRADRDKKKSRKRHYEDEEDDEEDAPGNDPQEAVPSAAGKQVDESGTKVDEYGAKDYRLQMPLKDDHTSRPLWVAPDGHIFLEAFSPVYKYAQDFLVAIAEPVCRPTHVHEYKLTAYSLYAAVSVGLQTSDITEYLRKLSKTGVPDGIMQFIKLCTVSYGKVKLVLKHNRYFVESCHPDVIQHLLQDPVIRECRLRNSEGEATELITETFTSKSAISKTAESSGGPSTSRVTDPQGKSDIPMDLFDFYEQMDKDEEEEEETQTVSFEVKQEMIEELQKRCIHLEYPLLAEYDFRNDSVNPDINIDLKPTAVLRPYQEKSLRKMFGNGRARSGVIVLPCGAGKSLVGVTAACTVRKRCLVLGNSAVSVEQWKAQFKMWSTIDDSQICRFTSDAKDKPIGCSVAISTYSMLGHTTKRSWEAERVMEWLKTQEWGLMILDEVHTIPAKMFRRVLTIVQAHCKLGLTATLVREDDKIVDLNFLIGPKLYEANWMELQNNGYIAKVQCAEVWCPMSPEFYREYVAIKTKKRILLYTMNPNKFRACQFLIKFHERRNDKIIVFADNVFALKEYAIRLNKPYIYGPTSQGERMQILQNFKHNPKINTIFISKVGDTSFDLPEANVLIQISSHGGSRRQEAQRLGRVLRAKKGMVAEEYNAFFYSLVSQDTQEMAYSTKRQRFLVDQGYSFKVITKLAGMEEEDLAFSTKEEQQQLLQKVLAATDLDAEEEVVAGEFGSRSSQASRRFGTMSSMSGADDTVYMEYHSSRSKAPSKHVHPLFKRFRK
# UniProt P23443: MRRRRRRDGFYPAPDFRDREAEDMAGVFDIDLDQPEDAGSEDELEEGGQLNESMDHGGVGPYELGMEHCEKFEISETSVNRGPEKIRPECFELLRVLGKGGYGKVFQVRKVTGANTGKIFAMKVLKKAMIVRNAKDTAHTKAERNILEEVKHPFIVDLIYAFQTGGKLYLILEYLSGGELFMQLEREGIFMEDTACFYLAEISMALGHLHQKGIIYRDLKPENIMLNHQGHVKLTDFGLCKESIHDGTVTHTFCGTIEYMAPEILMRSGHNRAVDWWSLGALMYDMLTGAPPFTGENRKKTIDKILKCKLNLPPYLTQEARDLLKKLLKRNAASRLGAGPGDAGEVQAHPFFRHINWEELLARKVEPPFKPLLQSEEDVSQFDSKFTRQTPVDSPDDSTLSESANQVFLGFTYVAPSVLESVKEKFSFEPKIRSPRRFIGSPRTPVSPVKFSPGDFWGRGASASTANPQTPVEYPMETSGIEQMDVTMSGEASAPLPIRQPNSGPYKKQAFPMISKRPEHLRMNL
# UniProt P35659: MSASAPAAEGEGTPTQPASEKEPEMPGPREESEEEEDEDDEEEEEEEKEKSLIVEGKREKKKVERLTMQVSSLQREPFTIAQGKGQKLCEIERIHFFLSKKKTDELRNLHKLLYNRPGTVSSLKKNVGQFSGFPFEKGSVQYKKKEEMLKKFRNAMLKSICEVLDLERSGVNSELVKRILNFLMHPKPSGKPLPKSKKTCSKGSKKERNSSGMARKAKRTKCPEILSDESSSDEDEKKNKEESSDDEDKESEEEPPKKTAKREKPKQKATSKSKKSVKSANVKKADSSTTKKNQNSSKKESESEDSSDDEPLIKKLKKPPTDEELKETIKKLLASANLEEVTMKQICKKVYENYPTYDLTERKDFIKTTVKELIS
# UniProt P27540, whole entry: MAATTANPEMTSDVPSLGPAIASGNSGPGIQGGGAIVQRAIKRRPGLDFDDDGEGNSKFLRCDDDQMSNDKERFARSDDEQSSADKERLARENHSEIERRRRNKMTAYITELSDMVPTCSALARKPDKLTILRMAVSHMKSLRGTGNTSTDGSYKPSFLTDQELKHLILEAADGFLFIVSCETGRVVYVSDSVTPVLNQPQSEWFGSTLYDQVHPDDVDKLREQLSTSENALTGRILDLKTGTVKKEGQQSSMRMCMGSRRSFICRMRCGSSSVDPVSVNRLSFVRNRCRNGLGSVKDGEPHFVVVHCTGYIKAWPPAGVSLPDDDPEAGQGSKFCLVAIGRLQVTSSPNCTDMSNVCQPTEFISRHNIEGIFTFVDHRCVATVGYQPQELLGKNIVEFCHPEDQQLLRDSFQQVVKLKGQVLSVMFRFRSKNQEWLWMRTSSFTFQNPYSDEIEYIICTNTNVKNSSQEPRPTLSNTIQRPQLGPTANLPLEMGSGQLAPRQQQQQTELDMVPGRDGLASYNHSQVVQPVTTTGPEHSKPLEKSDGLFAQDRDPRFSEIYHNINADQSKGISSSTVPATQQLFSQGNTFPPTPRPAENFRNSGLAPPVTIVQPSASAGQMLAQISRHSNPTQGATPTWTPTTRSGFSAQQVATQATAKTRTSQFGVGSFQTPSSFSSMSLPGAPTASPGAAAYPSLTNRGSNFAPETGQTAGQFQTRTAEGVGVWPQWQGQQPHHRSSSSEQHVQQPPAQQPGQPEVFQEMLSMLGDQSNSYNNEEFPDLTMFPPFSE
# UniProt P19367: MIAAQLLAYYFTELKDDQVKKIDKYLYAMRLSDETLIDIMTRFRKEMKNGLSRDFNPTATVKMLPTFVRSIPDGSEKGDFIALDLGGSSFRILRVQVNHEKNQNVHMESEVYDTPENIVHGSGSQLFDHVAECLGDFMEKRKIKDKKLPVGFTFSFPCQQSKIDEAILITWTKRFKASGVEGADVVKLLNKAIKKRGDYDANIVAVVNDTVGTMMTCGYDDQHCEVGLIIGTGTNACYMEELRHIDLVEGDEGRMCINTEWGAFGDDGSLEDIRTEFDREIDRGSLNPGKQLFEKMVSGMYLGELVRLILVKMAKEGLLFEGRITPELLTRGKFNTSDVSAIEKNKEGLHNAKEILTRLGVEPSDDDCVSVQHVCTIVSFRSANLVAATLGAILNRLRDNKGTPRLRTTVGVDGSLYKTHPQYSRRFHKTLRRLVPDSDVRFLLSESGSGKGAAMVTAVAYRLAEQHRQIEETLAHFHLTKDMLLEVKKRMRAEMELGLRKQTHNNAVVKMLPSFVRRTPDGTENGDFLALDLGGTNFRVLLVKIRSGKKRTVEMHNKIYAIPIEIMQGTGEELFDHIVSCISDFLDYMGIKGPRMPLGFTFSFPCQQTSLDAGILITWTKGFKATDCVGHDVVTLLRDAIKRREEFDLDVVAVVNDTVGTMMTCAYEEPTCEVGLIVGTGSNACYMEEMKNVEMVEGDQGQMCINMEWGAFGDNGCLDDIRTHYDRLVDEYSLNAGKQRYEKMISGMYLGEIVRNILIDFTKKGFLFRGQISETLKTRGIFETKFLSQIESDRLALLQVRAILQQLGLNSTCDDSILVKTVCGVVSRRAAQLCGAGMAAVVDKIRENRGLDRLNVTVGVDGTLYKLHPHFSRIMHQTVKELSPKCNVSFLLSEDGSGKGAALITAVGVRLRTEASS
# UniProt P30041: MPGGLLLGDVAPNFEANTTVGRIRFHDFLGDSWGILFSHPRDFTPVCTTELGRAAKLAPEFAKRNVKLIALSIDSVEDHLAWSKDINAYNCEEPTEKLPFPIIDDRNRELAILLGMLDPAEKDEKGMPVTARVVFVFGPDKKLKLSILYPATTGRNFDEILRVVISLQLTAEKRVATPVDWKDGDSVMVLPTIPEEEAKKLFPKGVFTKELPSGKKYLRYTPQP
# UniProt P28070, whole entry: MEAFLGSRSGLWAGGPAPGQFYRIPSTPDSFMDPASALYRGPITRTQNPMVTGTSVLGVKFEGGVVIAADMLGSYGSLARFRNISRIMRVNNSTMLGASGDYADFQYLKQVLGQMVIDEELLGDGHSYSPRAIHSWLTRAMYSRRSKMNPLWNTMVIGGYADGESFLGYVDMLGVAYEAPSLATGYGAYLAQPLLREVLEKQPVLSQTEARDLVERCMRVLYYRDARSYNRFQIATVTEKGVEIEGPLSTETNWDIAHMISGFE
# UniProt P26572: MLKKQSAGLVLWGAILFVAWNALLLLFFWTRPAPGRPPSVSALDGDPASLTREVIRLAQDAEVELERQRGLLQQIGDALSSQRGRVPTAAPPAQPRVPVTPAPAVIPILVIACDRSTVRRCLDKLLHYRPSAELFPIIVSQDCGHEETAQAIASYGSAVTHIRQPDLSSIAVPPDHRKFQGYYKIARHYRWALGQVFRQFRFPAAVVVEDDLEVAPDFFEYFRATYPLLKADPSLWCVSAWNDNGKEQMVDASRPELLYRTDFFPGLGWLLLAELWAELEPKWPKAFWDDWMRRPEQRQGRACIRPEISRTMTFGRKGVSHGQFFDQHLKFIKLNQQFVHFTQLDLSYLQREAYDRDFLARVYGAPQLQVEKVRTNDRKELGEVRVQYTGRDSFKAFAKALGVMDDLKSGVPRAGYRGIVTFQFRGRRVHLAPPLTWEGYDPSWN
# UniProt P27824: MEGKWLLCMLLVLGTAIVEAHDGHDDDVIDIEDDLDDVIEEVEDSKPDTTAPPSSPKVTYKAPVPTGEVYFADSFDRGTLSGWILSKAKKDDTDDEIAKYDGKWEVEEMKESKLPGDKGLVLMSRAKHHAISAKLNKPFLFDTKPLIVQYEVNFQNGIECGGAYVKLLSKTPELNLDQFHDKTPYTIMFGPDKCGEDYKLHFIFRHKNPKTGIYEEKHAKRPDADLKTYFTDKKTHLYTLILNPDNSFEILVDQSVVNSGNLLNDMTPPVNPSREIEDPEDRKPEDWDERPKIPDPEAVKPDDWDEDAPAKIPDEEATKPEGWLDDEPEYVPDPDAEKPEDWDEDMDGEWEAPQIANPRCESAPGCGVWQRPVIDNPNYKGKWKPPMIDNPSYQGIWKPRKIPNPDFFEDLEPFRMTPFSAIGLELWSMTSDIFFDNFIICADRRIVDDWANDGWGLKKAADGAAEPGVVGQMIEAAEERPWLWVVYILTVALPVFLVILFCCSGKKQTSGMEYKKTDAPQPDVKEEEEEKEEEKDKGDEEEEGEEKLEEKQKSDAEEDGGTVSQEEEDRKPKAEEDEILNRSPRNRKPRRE
# ± gives the standard deviation of the averaged measurements. The entries are a selection whose mix differs from that of the whole data set.
# Compound: Nc1ncnc2c1ncn2[C@@H]1O[C@H](COP(=O)(O)OP(=O)(O)OP(=O)(O)O)[C@@H](O)[C@H]1O [adenosine triphosphate]
# Assay: NP40-soluble protein abundance relative to vehicle (solubility fold change) (ratio); higher = more soluble protein in presence of ATP
# How it was run: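 Across three independent experiments, values are fold changes against the detergent-processed vehicle for each replicate, based on vsn-normalised intensities. The samples were Jurkat crude lysate treated with eight concentrations (0.1 to 10 mM) for 10 min at room temperature and then 3 min at 37 °C. Lysate was solubilised with 0.8% NP40 and benzonase, ultracentrifuged, and the supernatant analysed by TMT-labelled LC-MS/MS.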
Target,NP40-soluble protein abundance (concentration: 1mM),NP40-soluble protein abundance (concentration: 2mM),NP40-soluble protein abundance (concentration: 4mM),NP40-soluble protein abundance (concentration: 6mM),NP40-soluble protein abundance (concentration: 8mM),NP40-soluble protein abundance (concentration: 10mM)
UniProt P20020 and related entries,1.01 ± 0.094,0.99 ± 0.069,0.985 ± 0.062,1.03 ± 0.079,1.01 ± 0.097,1.02 ± 0.035
LMNB1 (UniProt P20700),0.877 ± 0.097,0.986 ± 0.17,0.866 ± 0.11,1.1 ± 0.16,0.91 ± 0.16,1.1 ± 0.083
MAT2A (UniProt P31153),0.981 ± 0.054,0.953 ± 0.047,0.932 ± 0.028,0.942 ± 0.071,0.955 ± 0.028,0.938 ± 0.062
AKAP5 (UniProt P24588),0.905 ± 0.031,0.944 ± 0.011,0.933 ± 0.046,0.949 ± 0.064,0.929 ± 0.099,0.9564 ± 0.0074
EEF1G (UniProt P26641),0.967 ± 0.021,0.915 ± 0.022,0.878 ± 0.0089,0.907 ± 0.025,0.917 ± 0.022,0.895 ± 0.043
UniProt P28331 and related entries,0.976 ± 0.028,0.964 ± 0.02,0.926 ± 0.014,0.936 ± 0.071,0.94 ± 0.057,0.941 ± 0.034
SPR (UniProt P35270),0.905 ± 0.059,0.926 ± 0.085,0.951 ± 0.082,0.856 ± 0.048,0.937 ± 0.071,0.961 ± 0.08
UniProt P31942 and related entries,1.03 ± 0.011,0.976 ± 0.065,0.985 ± 0.041,1.02 ± 0.13,1.03 ± 0.089,1.05 ± 0.091
ZNF24 (UniProt P17028),1.04 ± 0.027,1.02 ± 0.043,1.04 ± 0.03,1.05 ± 0.02,1.02 ± 0.022,1.03 ± 0.037
UniProt P26358 and related entries,0.989 ± 0.026,0.988 ± 0.014,0.978 ± 0.021,0.999 ± 0.029,0.992 ± 0.019,0.974 ± 0.017
UniProt P30520,0.965 ± 0.046,0.952 ± 0.049,0.952 ± 0.04,0.934 ± 0.059,0.959 ± 0.054,0.934 ± 0.054
UniProt P25325 and related entries,0.98 ± 0.034,0.974 ± 0.014,0.93 ± 0.019,1.05 ± 0.045,0.986 ± 0.073,0.974 ± 0.06
RFC4 (UniProt P35249),1.18 ± 0.04,1.23 ± 0.04,1.26 ± 0.048,1.32 ± 0.055,1.3 ± 0.032,1.26 ± 0.031
UniProt P25788 and related entries,0.92 ± 0.044,0.883 ± 0.021,0.833 ± 0.033,0.862 ± 0.056,0.876 ± 0.072,0.856 ± 0.042
UniProt P19525,1.1 ± 0.1,1.09 ± 0.065,1.07 ± 0.072,1.09 ± 0.11,1.09 ± 0.064,1.07 ± 0.043
UniProt P24666 and related entries,1.02 ± 0.09,0.982 ± 0.018,0.954 ± 0.05,0.969 ± 0.025,0.954 ± 0.019,0.93 ± 0.056
ZNF8 (UniProt P17098),1.02 ± 0.092,1.03 ± 0.066,1.01 ± 0.052,1.04 ± 0.06,1.01 ± 0.062,0.991 ± 0.052
GNA15 (UniProt P30679),1.05 ± 0.15,1.01 ± 0.12,1.01 ± 0.12,0.899 ± 0.15,1.02 ± 0.097,0.975 ± 0.083
RPL22 (UniProt P35268),0.985 ± 0.042,1 ± 0.028,1.03 ± 0.083,1.01 ± 0.056,1.01 ± 0.07,1.26 ± 0.14
CA8 (UniProt P35219),1.05 ± 0.11,1.06 ± 0.14,1.06 ± 0.091,1.03 ± 0.14,1.07 ± 0.09,1.01 ± 0.1
ERCC3 (UniProt P19447),1.04 ± 0.071,1.07 ± 0.032,1.13 ± 0.065,1.11 ± 0.06,1.19 ± 0.025,1.17 ± 0.021
DNAJA1 (UniProt P31689),1.04 ± 0.047,1.02 ± 0.033,1.01 ± 0.017,1.04 ± 0.07,1.08 ± 0.039,1.05 ± 0.049
GCH1 (UniProt P30793),0.947 ± 0.019,0.98786 ± 0.00041,1.02 ± 0.027,0.879 ± 0.028,0.926 ± 0.093,0.937 ± 0.019
UniProt P24539 and related entries,0.973 ± 0.14,0.878 ± 0.07,0.896 ± 0.093,0.902 ± 0.14,0.993 ± 0.082,0.792 ± 0.13
UniProt P26010 and related entries,0.923 ± 0.12,0.942 ± 0.099,0.959 ± 0.12,0.955 ± 0.08,0.89 ± 0.081,0.94 ± 0.096
UniProt P23443 and related entries,0.989 ± 0.085,1.01 ± 0.086,0.981 ± 0.032,0.94 ± 0.12,0.99 ± 0.029,1.02 ± 0.054

# Some of the entries above in another layout:
Target | NP40-soluble protein abundance (concentration: 1mM) | NP40-soluble protein abundance (concentration: 2mM) | NP40-soluble protein abundance (concentration: 4mM) | NP40-soluble protein abundance (concentration: 6mM) | NP40-soluble protein abundance (concentration: 8mM) | NP40-soluble protein abundance (concentration: 10mM)
UniProt P20020 and related entries | 1.01 ± 0.094 | 0.99 ± 0.069 | 0.985 ± 0.062 | 1.03 ± 0.079 | 1.01 ± 0.097 | 1.02 ± 0.035
MAT2A (UniProt P31153) | 0.981 ± 0.054 | 0.953 ± 0.047 | 0.932 ± 0.028 | 0.942 ± 0.071 | 0.955 ± 0.028 | 0.938 ± 0.062
ZNF24 (UniProt P17028) | 1.04 ± 0.027 | 1.02 ± 0.043 | 1.04 ± 0.03 | 1.05 ± 0.02 | 1.02 ± 0.022 | 1.03 ± 0.037
UniProt P26358 and related entries | 0.989 ± 0.026 | 0.988 ± 0.014 | 0.978 ± 0.021 | 0.999 ± 0.029 | 0.992 ± 0.019 | 0.974 ± 0.017
UniProt P25325 and related entries | 0.98 ± 0.034 | 0.974 ± 0.014 | 0.93 ± 0.019 | 1.05 ± 0.045 | 0.986 ± 0.073 | 0.974 ± 0.06
RFC4 (UniProt P35249) | 1.18 ± 0.04 | 1.23 ± 0.04 | 1.26 ± 0.048 | 1.32 ± 0.055 | 1.3 ± 0.032 | 1.26 ± 0.031
UniProt P19525 | 1.1 ± 0.1 | 1.09 ± 0.065 | 1.07 ± 0.072 | 1.09 ± 0.11 | 1.09 ± 0.064 | 1.07 ± 0.043
UniProt P24666 and related entries | 1.02 ± 0.09 | 0.982 ± 0.018 | 0.954 ± 0.05 | 0.969 ± 0.025 | 0.954 ± 0.019 | 0.93 ± 0.056
ZNF8 (UniProt P17098) | 1.02 ± 0.092 | 1.03 ± 0.066 | 1.01 ± 0.052 | 1.04 ± 0.06 | 1.01 ± 0.062 | 0.991 ± 0.052
GNA15 (UniProt P30679) | 1.05 ± 0.15 | 1.01 ± 0.12 | 1.01 ± 0.12 | 0.899 ± 0.15 | 1.02 ± 0.097 | 0.975 ± 0.083
RPL22 (UniProt P35268) | 0.985 ± 0.042 | 1 ± 0.028 | 1.03 ± 0.083 | 1.01 ± 0.056 | 1.01 ± 0.07 | 1.26 ± 0.14
CA8 (UniProt P35219) | 1.05 ± 0.11 | 1.06 ± 0.14 | 1.06 ± 0.091 | 1.03 ± 0.14 | 1.07 ± 0.09 | 1.01 ± 0.1
ERCC3 (UniProt P19447) | 1.04 ± 0.071 | 1.07 ± 0.032 | 1.13 ± 0.065 | 1.11 ± 0.06 | 1.19 ± 0.025 | 1.17 ± 0.021
DNAJA1 (UniProt P31689) | 1.04 ± 0.047 | 1.02 ± 0.033 | 1.01 ± 0.017 | 1.04 ± 0.07 | 1.08 ± 0.039 | 1.05 ± 0.049
UniProt P24539 and related entries | 0.973 ± 0.14 | 0.878 ± 0.07 | 0.896 ± 0.093 | 0.902 ± 0.14 | 0.993 ± 0.082 | 0.792 ± 0.13

# (next part)

Target,NP40-soluble protein abundance (concentration: 1mM),NP40-soluble protein abundance (concentration: 2mM),NP40-soluble protein abundance (concentration: 4mM),NP40-soluble protein abundance (concentration: 6mM),NP40-soluble protein abundance (concentration: 8mM),NP40-soluble protein abundance (concentration: 10mM)
ITPKB (UniProt P27987),0.929 ± 0.038,0.988 ± 0.035,0.942 ± 0.034,1.04 ± 0.083,0.93 ± 0.12,1.01 ± 0.058
CTH (UniProt P32929),1.05 ± 0.14,0.979 ± 0.077,0.958 ± 0.057,0.885 ± 0.1,0.97 ± 0.017,0.982 ± 0.051
UniProt P30044 and related entries,0.993 ± 0.073,0.995 ± 0.017,0.979 ± 0.024,1.03 ± 0.014,0.95 ± 0.022,0.935 ± 0.057
PRDX2 (UniProt P32119),0.966 ± 0.053,0.933 ± 0.059,0.91 ± 0.029,0.944 ± 0.082,0.928 ± 0.066,0.896 ± 0.078
IL2RG (UniProt P31785),0.911 ± 0.082,0.978 ± 0.026,0.975 ± 0.053,0.956 ± 0.067,0.927 ± 0.03,0.939 ± 0.051
UniProt P20963 and related entries,0.975 ± 0.079,0.95 ± 0.05,0.956 ± 0.013,0.961 ± 0.036,0.981 ± 0.032,0.884 ± 0.11
DTYMK (UniProt P23919),0.942 ± 0.037,0.953 ± 0.05,0.923 ± 0.034,0.933 ± 0.064,0.938 ± 0.058,0.921 ± 0.043
CORO1A (UniProt P31146),1.05 ± 0.022,1.04 ± 0.035,1.02 ± 0.015,1.06 ± 0.036,1.05 ± 0.03,1.04 ± 0.054
SLC7A1 (UniProt P30825),0.941 ± 0.063,0.95 ± 0.071,0.947 ± 0.049,0.893 ± 0.036,0.924 ± 0.063,0.884 ± 0.047
UniProt P29353 and related entries,1 ± 0.021,1.03 ± 0.064,0.998 ± 0.029,0.966 ± 0.015,1 ± 0.063,1.04 ± 0.051
MCM4 (UniProt P33991),0.983 ± 0.039,0.943 ± 0.026,0.913 ± 0.018,0.934 ± 0.037,0.958 ± 0.029,0.933 ± 0.034
UniProt P19784,1.01 ± 0.081,1.02 ± 0.077,0.997 ± 0.067,0.963 ± 0.12,1.11 ± 0.058,1.07 ± 0.051
DEK (UniProt P35659),1.04 ± 0.092,1.09 ± 0.042,1.1 ± 0.047,1.19 ± 0.051,1.12 ± 0.023,1.13 ± 0.021
UniProt P27540 and related entries,0.991 ± 0.028,1.01 ± 0.024,0.989 ± 0.011,0.991 ± 0.03,0.947 ± 0.016,0.986 ± 0.036
UniProt P23634-6,1.08 ± 0.12,1.01 ± 0.075,1.02 ± 0.1,0.992 ± 0.091,1.03 ± 0.093,1.02 ± 0.082
UniProt P19367 and related entries,1.02 ± 0.085,1 ± 0.074,0.991 ± 0.049,0.917 ± 0.11,0.997 ± 0.038,0.987 ± 0.06
PRDX6 (UniProt P30041),0.966 ± 0.026,0.958 ± 0.03,0.919 ± 0.029,0.89 ± 0.074,0.955 ± 0.056,0.885 ± 0.07
RPL13 (UniProt P26373),0.934 ± 0.11,0.901 ± 0.2,0.844 ± 0.18,0.798 ± 0.21,0.687 ± 0.13,0.888 ± 0.16
UniProt P20290 and related entries,1.08 ± 0.12,1.08 ± 0.055,1.13 ± 0.081,1.24 ± 0.089,1.16 ± 0.036,1.16 ± 0.06
PSMB4 (UniProt P28070),0.965 ± 0.11,0.943 ± 0.049,0.906 ± 0.041,0.867 ± 0.018,0.944 ± 0.049,0.928 ± 0.051
MGAT1 (UniProt P26572),1.12 ± 0.17,1.1 ± 0.052,1.13 ± 0.2,1.08 ± 0.17,1.06 ± 0.11,1.056 ± 0.01
UniProt P23771 and related entries,0.853 ± 0.026,0.857 ± 0.043,0.838 ± 0.05,0.806 ± 0.047,0.796 ± 0.0091,0.785 ± 0.03
UniProt P28482,0.958 ± 0.051,0.965 ± 0.057,0.93 ± 0.036,0.903 ± 0.085,0.942 ± 0.042,0.943 ± 0.026
PSMB1 (UniProt P20618),0.833 ± 0.27,0.959 ± 0.12,0.875 ± 0.075,0.813 ± 0.17,0.908 ± 0.064,0.839 ± 0.12
UniProt P28838 and related entries,0.959 ± 0.043,0.957 ± 0.04,0.934 ± 0.05,0.965 ± 0.04,0.945 ± 0.055,0.948 ± 0.054
UniProt P27824 and related entries,0.938 ± 0.015,0.9225 ± 0.0066,0.88 ± 0.017,0.924 ± 0.028,0.907 ± 0.04,0.905 ± 0.018
